# Measured values as given in patent US6759385B1, “Methods to treat undesirable immune responses” (Regents of the University of Minnesota, priority 1997, dated 2004).
# Chains of the proteins cited; added tags and fusions are not shown. Lines headed by an entry give the natural chain unless they say otherwise; changes in a name come on top.
# UniProt P02708: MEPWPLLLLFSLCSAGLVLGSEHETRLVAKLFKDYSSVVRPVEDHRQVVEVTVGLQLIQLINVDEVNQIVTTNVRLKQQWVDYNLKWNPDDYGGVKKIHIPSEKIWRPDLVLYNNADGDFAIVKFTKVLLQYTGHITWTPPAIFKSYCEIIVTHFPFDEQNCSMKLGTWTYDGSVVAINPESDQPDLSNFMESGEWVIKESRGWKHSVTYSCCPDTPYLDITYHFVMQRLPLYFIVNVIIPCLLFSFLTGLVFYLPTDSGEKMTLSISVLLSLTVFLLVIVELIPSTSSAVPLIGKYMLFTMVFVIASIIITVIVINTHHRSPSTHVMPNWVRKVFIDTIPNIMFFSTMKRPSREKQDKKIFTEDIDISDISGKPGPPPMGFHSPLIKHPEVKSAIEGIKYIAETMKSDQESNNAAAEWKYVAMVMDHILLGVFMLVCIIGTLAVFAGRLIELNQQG
# Some of these results come from one statement about several compounds together.
# Test system: CD4+ cells of MG patients
# Experiment: Response of CD4+ T cells of MG patients to synthetic human AChR peptides
# Assay type: cell-based
# Text: Several studies have identified sequences of the human AChR α subunit recognized by T cells in MG patients. To determine whether the CD4^+ cells recognizing those immunodominant and/or universal epitope sequences can drive the synthesis of pathogenic anti-AChR antibodies, and how the ability of the different sequence regions of the AChR to interact with different HLA DR molecules correlates with the presence of universal CD4^+ epitopes, synthetic peptides based on the amino acid sequence of the human α subunit of AChR (Noda et al., Nature, 305, 818 (1983); Schoepfer et al., FEBS Lett., 226, 235 (1981)) were prepared. The peptides were approximately 20 residues long, a length that compares with that of naturally processed class II-restricted epitopes, which are 9-14 residues. […] The peptides overlapped by 5-10 residues to reduce the risk of missing epitopes “broken” between peptides.
# The response to individual overlapping synthetic AChR peptides spanning the sequence of each AChR subunit, of unselected blood […], and of CD4^+ T cell lines enriched with AChR-specific cells by culture in vitro with ACHR antigens, was tested. The use of those two cell populations has different advantages and limitations. AChR-specific CD4+ lines have strong, consistent responses to individual peptides that allow a clear-cut assessment of their epitope repertoire. […]
row,Substance,MG patients whose CD4+ cells recognize the peptide [%]
1,"peptide α304-322: synthetic sequence of the human AChR α subunit, universal epitope (STHVMPNWVRKVFIDTIPN; UniProt P02708 324-342, looked up, fragment)",≥ 50
2,"peptide α419-437: synthetic sequence of the human AChR α subunit, universal epitope (IIGTLAVFAGRLIELNQQG; UniProt P02708 439-457, looked up, fragment)",≥ 50
